{"sequences": {"note": "The chains behind the UniProt entries cited, without tags or fusion partners.", "UniProt Q60843": "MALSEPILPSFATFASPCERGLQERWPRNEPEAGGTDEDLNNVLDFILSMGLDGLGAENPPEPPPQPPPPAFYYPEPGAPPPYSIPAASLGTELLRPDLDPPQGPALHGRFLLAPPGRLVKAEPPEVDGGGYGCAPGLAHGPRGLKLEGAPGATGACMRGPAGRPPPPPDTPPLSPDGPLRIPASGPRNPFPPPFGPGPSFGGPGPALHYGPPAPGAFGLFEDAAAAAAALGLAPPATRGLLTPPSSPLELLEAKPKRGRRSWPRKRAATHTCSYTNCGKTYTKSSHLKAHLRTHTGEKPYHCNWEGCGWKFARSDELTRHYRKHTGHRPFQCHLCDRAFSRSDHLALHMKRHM", "UniProt Q8VBV4": "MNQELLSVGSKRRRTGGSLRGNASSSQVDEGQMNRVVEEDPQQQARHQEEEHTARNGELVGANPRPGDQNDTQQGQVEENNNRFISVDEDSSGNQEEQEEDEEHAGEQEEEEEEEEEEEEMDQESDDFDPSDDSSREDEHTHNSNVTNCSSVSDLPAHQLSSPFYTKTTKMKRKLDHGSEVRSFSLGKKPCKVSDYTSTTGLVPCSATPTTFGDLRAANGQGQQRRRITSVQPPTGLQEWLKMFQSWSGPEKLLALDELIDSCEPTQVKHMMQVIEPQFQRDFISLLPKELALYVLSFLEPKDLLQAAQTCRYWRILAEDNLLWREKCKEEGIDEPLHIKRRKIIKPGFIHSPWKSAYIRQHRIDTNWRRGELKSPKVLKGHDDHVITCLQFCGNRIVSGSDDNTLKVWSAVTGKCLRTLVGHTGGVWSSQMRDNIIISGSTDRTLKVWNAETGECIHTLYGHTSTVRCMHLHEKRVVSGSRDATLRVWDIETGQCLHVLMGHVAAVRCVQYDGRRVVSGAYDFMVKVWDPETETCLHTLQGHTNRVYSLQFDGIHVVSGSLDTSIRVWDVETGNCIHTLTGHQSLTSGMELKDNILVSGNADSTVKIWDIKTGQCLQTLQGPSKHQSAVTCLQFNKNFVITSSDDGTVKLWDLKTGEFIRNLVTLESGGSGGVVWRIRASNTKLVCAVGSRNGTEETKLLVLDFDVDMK"}, "source": "paper PMC8718266", "biological_target": "3xFLAG-KLF2 wild-type (UniProt Q60843)", "test": "co-IP; mESCs transfected with HA-FBW7 and empty vector or the indicated 3xFLAG-KLF2 construct; FLAG IP; HA-FBW7 detected by immunoblotting", "note": "No constants are given. Whether binding was seen depends on the method and setting. Binding seen in cells or lysates may run through a third protein. Some results given as binding are weak or reduced against the parent protein; the word gives no strength.", "data": [{"substance": "HA-FBW7 (from UniProt Q8VBV4 1-710)", "values": [{"measurement": "binding", "result": "binds"}]}]}
